Measurements reported in PubChem BioAssay AID1259308 (NCATS, 2017).
Here is a random part of about 59,000 reagents. About 1,510 of them (2.6%) were called active. 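Calls use total luciferase alone and ignore viability, so some active siRNAs may act by altering cell number.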 Unmarked entries are inactive. The numbers tell different reagents against one gene apart.

Assay: 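Candidate targets for better recombinant protein yield in mammalian cells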 (primary screen)
System: human HEK293 embryonic kidney cells stably expressing firefly luciferase (HEK-CMV-Luc2-Hygro)
Reagent: single siRNA against human genes, 0.8 pmol siRNA per well
Timing: 72 h
Measured: 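Reporter luminescence and viable-cell signal on separate replicate plates, given as percent of non-targeting control and median/MAD z-scores, plus per-cell luciferase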
Reading the numbers: total luciferase, z-score and total luciferase, % of control: higher = more reporter protein produced; luciferase per cell, z-score: higher = more reporter output per viable cell; viable cells, % of control: higher = more viable cells
Active means: 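An siRNA counts as active if its total luciferase robust z-score exceeds 3; genes with two or more such siRNAs out of three were retested with fresh siRNAs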
Calls: active = raised luciferase; inactive = no rise

no.	gene knocked down	reagent	total luciferase, z-score	total luciferase, % of control	luciferase per cell, z-score	viable cells, % of control
1	ARMCX5	1	-1.5	52	-0.675	69.4
2	ARMCX5	2	-0.705	67.9	-0.572	88.1
3	ARMCX5	3	0.456	91	0.344	92.8
4	SPRY3	1	-0.498	72	0.0189	80
5	SPRY3	2	-1.4	54	-1.28	84.4
6	SPRY3	3	-1.13	59.4	-1.2	90.9
7	SMIM11	1	-0.79	66.2	1	56.8
8	SMIM11	2	-0.528	71.4	-0.0786	81.4
9	SMIM11	3	0.4	89.8	0.37	91.1
10	LRIF1	1	-2.22	37.8	-2.63	84.4
11	LRIF1	2	1.18	105	1.71	75.1
12	LRIF1	3	1.88	119	1.13	98.9
13	KRT80	1	2.61	134	2.28	81.9
14	KRT80	2	-1.07	60.5	-1.89	111
15	KRT80	3	1.71	116	1.64	84.1
16	LSG1	1	-1.89	44.3	-1.4	71.6
17	LSG1	2	-0.0336	81.2	-0.417	101
18	LSG1	3	4.95 (active)	180	3.26	85.4
19	MAGEB1	1	-0.0518	80.9	-0.122	93.3
20	MAGEB1	2	1.06	103	0.719	95.2
21	MAGEB1	3	-0.968	62.6	-0.806	86.5

Laid out differently: entries from further up
gene knocked down	reagent	total luciferase, z-score	total luciferase, % of control	luciferase per cell, z-score	viable cells, % of control
ARMCX5	1	-1.5	52	-0.675	69.4
ARMCX5	2	-0.705	67.9	-0.572	88.1
ARMCX5	3	0.456	91	0.344	92.8
SPRY3	1	-0.498	72	0.0189	80
SPRY3	2	-1.4	54	-1.28	84.4

Further reagents follow.
no.	gene knocked down	reagent	total luciferase, z-score	total luciferase, % of control	luciferase per cell, z-score	viable cells, % of control
22	TMEM207	1	0.375	89.3	0.49	87.7
23	TMEM207	2	0.885	99.5	0.399	100
24	TMEM207	3	-0.716	67.6	-1.61	116
25	DDIT3	1	5.72 (active)	196	4.04	75.4
26	DDIT3	2	0.224	86.3	0.781	78.5
27	DDIT3	3	-0.345	75	-0.264	89.9
28	LOC389834	1	0.16	85.1	-0.298	103
29	LOC389834	2	-0.16	78.7	-0.621	104
30	LOC389834	3	-0.68	68.4	-0.728	92.5
31	PLXNB2	1	2.79	137	3.22	65.7
32	PLXNB2	2	0.148	84.8	-0.65	112
33	PLXNB2	3	-0.333	75.3	-0.557	97.4
34	NTM	1	-2.27	36.7	-1.19	56.1
35	NTM	2	-1.14	59.2	-1.22	91.1
36	NTM	3	0.155	85	0.268	88.5
37	CADM1	1	0.125	84.4	-0.68	113
38	CADM1	2	0.801	97.8	1.04	83
39	CADM1	3	1.46	111	0.536	108
